Experimental data: PMC10229537
These are yes or no findings as the source states them, for the method shown. Some results given as binding are weak or reduced against the parent protein; the word gives no strength.

Protein sequences, listed by entry. Tags and fused reporters are not part of them. Residues count along the entry.
UniProt Q5D869: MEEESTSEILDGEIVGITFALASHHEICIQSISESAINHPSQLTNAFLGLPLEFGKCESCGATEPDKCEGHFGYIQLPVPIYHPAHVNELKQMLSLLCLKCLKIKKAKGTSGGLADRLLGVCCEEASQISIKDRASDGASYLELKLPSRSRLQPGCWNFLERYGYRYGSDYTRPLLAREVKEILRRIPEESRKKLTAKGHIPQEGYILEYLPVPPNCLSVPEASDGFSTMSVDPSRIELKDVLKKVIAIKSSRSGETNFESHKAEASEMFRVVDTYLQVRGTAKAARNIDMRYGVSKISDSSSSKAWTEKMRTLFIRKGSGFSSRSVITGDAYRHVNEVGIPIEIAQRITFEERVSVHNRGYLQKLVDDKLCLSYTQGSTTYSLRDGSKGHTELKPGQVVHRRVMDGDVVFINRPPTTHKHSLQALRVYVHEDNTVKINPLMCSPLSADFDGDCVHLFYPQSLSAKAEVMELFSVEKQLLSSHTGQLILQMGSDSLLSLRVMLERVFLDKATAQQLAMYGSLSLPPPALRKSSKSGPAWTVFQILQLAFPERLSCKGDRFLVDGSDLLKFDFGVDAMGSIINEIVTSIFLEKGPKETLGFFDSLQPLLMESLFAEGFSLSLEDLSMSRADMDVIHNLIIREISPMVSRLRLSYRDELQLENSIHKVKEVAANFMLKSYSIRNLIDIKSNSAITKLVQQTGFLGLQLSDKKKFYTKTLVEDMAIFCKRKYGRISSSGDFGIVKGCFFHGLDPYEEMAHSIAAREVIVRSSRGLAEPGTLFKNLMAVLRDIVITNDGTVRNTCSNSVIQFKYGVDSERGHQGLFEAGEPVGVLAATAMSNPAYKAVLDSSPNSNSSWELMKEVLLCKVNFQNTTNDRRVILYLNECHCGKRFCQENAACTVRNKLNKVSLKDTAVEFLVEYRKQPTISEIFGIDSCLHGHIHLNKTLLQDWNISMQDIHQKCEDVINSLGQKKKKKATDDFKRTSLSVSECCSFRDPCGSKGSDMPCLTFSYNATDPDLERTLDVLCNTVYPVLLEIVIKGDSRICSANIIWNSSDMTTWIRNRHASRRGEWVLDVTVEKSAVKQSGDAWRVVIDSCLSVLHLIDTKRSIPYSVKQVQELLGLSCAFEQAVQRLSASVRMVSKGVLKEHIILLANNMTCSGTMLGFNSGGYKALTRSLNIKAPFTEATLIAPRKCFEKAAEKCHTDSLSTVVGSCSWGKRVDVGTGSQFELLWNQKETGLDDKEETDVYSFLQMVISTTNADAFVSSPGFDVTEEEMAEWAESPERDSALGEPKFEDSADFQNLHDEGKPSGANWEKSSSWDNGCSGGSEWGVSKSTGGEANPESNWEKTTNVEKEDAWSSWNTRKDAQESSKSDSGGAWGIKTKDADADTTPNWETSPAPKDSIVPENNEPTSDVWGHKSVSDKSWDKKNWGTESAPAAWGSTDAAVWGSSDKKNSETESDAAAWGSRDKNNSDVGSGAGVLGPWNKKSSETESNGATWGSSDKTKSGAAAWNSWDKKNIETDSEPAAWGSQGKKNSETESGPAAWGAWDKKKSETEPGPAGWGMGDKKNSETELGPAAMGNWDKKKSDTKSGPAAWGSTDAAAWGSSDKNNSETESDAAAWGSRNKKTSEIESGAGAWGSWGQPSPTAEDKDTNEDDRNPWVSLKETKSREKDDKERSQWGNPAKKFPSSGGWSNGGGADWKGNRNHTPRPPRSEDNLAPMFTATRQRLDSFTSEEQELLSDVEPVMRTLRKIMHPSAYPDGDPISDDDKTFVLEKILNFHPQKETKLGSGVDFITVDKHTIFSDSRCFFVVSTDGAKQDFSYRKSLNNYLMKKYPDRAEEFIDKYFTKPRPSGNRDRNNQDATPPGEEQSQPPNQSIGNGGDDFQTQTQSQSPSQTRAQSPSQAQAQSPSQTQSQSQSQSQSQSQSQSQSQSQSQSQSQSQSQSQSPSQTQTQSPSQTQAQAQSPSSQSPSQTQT
UniProt F4JW79, residues 1-712: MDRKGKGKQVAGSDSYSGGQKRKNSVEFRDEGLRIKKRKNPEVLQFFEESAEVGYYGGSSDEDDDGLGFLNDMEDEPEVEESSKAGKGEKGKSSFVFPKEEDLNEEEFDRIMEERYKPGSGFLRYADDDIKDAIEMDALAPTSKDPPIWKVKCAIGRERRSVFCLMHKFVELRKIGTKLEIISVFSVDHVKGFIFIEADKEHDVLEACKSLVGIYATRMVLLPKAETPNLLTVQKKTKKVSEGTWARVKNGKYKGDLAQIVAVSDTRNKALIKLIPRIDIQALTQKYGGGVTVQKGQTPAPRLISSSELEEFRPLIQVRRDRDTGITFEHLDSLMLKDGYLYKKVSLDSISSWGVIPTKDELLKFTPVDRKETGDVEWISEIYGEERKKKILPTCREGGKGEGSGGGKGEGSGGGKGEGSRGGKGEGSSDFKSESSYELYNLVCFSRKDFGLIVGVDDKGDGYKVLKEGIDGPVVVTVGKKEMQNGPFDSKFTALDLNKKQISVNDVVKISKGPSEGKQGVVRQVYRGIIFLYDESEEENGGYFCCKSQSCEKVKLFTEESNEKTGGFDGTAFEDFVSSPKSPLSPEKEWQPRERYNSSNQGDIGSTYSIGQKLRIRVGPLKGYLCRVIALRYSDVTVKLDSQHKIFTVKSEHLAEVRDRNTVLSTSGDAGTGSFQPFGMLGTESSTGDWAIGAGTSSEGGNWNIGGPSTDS

T1: NRPE7 (Arabidopsis thaliana (endogenous in T87 cells)) (UniProt A6QRA1)
T1 sequence: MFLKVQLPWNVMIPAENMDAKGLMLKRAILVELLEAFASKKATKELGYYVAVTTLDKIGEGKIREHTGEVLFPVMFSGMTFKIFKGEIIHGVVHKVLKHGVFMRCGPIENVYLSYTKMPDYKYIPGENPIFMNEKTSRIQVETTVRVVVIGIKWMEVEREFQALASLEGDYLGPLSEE


Legend:
[1] = target: NRPE1, the largest subunit of Pol V, 3xFLAG-10xHis-tagged (Arabidopsis thaliana) (UniProt Q5D869); assay: co-purification with 3xFLAG-10xHis-NRPE1, subunits seen in the cryo-EM map; Pol V purified by anti-FLAG resin, Capto Q and Superose 6 from T87 cells; the subunits present are told from the cryo-EM maps
[2] = target: T1, NRPE7 (Arabidopsis thaliana (endogenous in T87 cells)); assay: cryo-EM structure; contacts between subunits of Pol V, which was purified as a whole from T87 cells, in the KTF1-bound Pol V TEC structure; local map of NRPE5 at 3.7 Å, stalk in the 4.3 Å map
[3] = target: KOW domain-containing transcription factor 1 (KTF1), residues 1-712, the conserved N-terminal domain (Arabidopsis thaliana) (UniProt F4JW79); assay: SEC; KTF1 (1-712) and SPT4 co-expressed in E. coli, co-purified by Ni-NTA, SUMOstar protease cleavage, heparin and Superose 6 10/300 GL in 20 mM HEPES pH 7.5, 100 mM KCl, 5 mM MgCl2, 2 mM DTT
[4] = target: NRPE1, the largest subunit of Pol V, 3xFLAG-10xHis-tagged (Arabidopsis thaliana) (UniProt Q5D869); assay: cryo-EM structure; contacts between subunits of Pol V, which was purified as a whole from T87 cells, in the KTF1-bound Pol V TEC structure; local map of NRPE5 at 3.7 Å, stalk in the 4.3 Å map

binding [1]	binding [4]	Binder	other results
	binds	NRPE5a (protein, UniProt Q9M1J2 1-222) MEVKGKETASVLCLSKYVDLSSEESHRYYLARRNGLQMLRDRGYEVSDEDINLSLHDFRTVYGERPDVDRLRISALHRSDSTKKVKIVFFGTSMVKVNAIRSVVADILSQETITGLILVLQNHVTNQALKAIELFSFKVEIFQITDLLVNITKHSLKPQHQVLNDEEKTTLLKKFSIEEKQLPRISKKDAIVRYYGLEKGQVVKVNYRGELTESHVAFRCVW	
	binds	NRPE7 (protein, UniProt A6QRA1 1-178) MFLKVQLPWNVMIPAENMDAKGLMLKRAILVELLEAFASKKATKELGYYVAVTTLDKIGEGKIREHTGEVLFPVMFSGMTFKIFKGEIIHGVVHKVLKHGVFMRCGPIENVYLSYTKMPDYKYIPGENPIFMNEKTSRIQVETTVRVVVIGIKWMEVEREFQALASLEGDYLGPLSEE	

Second part, the binder before the results:

Binder	binding [1]	binding [4]	other results
NRP(D/E)4 (protein, UniProt Q6DBA5 1-205) MSEKGGKGLKSSLKSKDGGKDGSSTKLKKGRKIHFDQRTPPANYKILNVSSDQQPFQSSAAKCGKSDKPTKSSKNSLHSFELKDLPENAECMMDCEAFQILDGIKGQLVGLSEDPSIKIPVSYDRALAYVESCVHYTNPQSVRKVLEPLKTYGISDGEMCVIANASSESVDEVLAFIPSLKTKKEVINQPLQDALEELSKLKKSE	binds		binding [2]: binds
NRP(B/D/E)11 (protein, UniProt Q38859 1-116) MNAPERYERFVVPEGTKKVSYDRDTKIINAASFTVEREDHTIGNIVRMQLHRDENVLFAGYQLPHPLKYKIIVRIHTTSQSSPMQAYNQAINDLDKELDYLKNQFEAEVAKFSNQF	binds		
SPT4 (protein, UniProt Q94C60 1-116) MGSAPAQIPTSFGHELRACLRCRLVKTYDQFRDAGCENCPFFKMEEDHERIVEVTTPNFNGIISVMDPSRSWAARWLRIGKFAPGCYTLAVSEPLPEEMQHLCQEERVQYVLPKRM			binding [3]: binds
